Source: paper PMC13246002
No constants are given. Whether binding was seen depends on the method and setting. In cells and extracts the contact can be indirect. Some entries that bind do so weakly or less than the wild type. Tags and fused reporters may be left off the sequences shown.

T1: Tfb3-TAP (full-length Tfb3 with tandem affinity purification tag) (S. cerevisiae) (UniProt Q03290)
T1 sequence: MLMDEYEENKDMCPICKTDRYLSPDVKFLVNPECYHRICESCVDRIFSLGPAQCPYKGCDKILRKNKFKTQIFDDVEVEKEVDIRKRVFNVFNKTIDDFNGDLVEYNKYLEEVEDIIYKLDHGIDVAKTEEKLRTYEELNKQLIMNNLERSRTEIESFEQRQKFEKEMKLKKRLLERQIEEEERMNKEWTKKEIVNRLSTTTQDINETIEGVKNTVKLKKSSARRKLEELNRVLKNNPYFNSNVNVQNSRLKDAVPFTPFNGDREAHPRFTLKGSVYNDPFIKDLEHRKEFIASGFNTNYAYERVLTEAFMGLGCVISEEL

T2: Tfb3 C-term-TAP, TFB3(1-11, 238-Stop)-Flag1-TAP (S. cerevisiae) (UniProt Q03290)
T2 sequence: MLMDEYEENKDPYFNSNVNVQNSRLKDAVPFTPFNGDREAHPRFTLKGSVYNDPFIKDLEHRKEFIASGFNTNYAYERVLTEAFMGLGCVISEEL


Experiments:
[1] = target: T1, Tfb3-TAP (full-length Tfb3 with tandem affinity purification tag) (S. cerevisiae); assay: co-IP; TAP-tagged Tfb3 derivatives precipitated from yeast whole-cell extracts with IgG Sepharose, 1 hr at 4°C, lysis buffer 20 mM HEPES pH 7.6, 10% glycerol, 200 mM KOAc, 1 mM EDTA, 1 mM DTT; beads washed three times; bound proteins immunoblotted
[2] = target: T2, Tfb3 C-term-TAP, TFB3(1-11, 238-Stop)-Flag1-TAP (S. cerevisiae); assay: as above

binding [1]	binding [2]	Binder
binds	–	Tfb1 (protein, UniProt P32776 1-642) MSHSGAAIFEKVSGIIAINEDVSPAELTWRSTDGDKVHTVVLSTIDKLQATPASSEKMMLRLIGKVDESKKRKDNEGNEVVPKPQRHMFSFNNRTVMDNIKMTLQQIISRYKDADIYEEKRRREESAQHTETPMSSSSVTAGTPTPHLDTPQLNNGAPLINTAKLDDSLSKEKLLTNLKLQQSLLKGNKVLMKVFQETVINAGLPPSEFWSTRIPLLRAFALSTSQKVGPYNVLSTIKPVASSENKVNVNLSREKILNIFENYPIVKKAYTDNVPKNFKEPEFWARFFSSKLFRKLRGEKIMQNDRGDVIIDRYLTLDQEFDRKDDDMLLHPVKKIIDLDGNIQDDPVVRGNRPDFTMQPGVDINGNSDGTVDILKGMNRLSEKMIMALKNEYSRTNLQNKSNITNDEEDEDNDERNELKIDDLNESYKTNYAIIHLKRNAHEKTTDNDAKSSADSIKNADLKVSNQQMLQQLSLVMDNLINKLDLNQVVPNNEVSNKINKRVITAIKINAKQAKHNNVNSALGSFVDNTSQANELEVKSTLPIDLLESCRMLHTTCCEFLKHFYIHFQSGEQKQASTVKKLYNHLKDCIEKLNELFQDVLNGDGESMSNTCTAYLKPVLNSITLATHKYDEYFNEYNNNSN
binds	binds	Ccl1 (protein, UniProt P37366 1-393) MTDIQLNGKSTLDTPSATMSAKEKEAKLKSADENNKPPNYKRISDDDLYRHSSQYRMWSYTKDQLQEKRVDTNARAIAYIEENLLKFREAHNLTEEEIKVLEAKAIPLTMEEELDLVNFYAKKVQVIAQHLNLPTEVVATAISFFRRFFLENSVMQIDPKSIVHTTIFLACKSENYFISVDSFAQKAKSTRDSVLKFEFKLLESLKFSLLNHHPYKPLHGFFLDIQNVLYGKVDLNYMGQIYDRCKKRITAALLTDVVYFYTPPQITLATLLIEDEALVTRYLETKFPSREGSQESVPGNEKEEPQNDASTTEKNKEKSTESEEYSIDSAKLLTIIRECKSIIEDCKPPSTEEAKKIAAKNYYCQNPSTLIQKLKRKLNGEDTSSTVEKKQKT
binds	binds	Kin28 (enzyme, UniProt P06242 1-306) MKVNMEYTKEKKVGEGTYAVVYLGCQHSTGRKIAIKEIKTSEFKDGLDMSAIREVKYLQEMQHPNVIELIDIFMAYDNLNLVLEFLPTDLEVVIKDKSILFTPADIKAWMLMTLRGVYHCHRNFILHRDLKPNNLLFSPDGQIKVADFGLARAIPAPHEILTSNVVTRWYRAPELLFGAKHYTSAIDIWSVGVIFAELMLRIPYLPGQNDVDQMEVTFRALGTPTDRDWPEVSSFMTYNKLQIYPPPSRDELRKRFIAASEYALDFMCGMLTMNPQKRWTAVQCLESDYFKELPPPSDPSSIKIRN
